Whole data set: some 33,000 sequences, median “E-score (-0.5 to 0.5)” near -8e-05, cut for the highest 2% near 0.23. The list shows a part of the results.

For this assay, the target named is T1, Nrg2 (UniProt P38082).
T1 sequence: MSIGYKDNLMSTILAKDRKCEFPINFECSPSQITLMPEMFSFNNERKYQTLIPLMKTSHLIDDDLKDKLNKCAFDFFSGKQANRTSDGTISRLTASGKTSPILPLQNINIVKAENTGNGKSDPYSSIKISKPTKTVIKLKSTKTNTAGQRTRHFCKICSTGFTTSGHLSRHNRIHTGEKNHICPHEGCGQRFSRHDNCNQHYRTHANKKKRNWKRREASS
Description: PBM E-score (8-mer binding enrichment) (E-score (-0.5 to 0.5)); higher = stronger / more preferred TF binding. The following applies: protein concentration: 100 nM; construct: GST-full length. A digest of the protocol: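 Yeast transcription factors carrying a GST tag, as full-length proteins or DNA-binding domains, were produced by PURExpress in vitro transcription/translation. About 100-200 nM protein was applied to universal all-10-mer Agilent arrays, double-stranded by primer extension on fresh or once-stripped slides. Bound protein was detected with fluorescent anti-GST, and scans were normalised with masliner. The Universal PBM Analysis Suite gave each ungapped eight-base word, pooled with its reverse complement, an E-score, a modified Wilcoxon-Mann-Whitney statistic.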
As for ATGGCATA, the “PBM E-score” value was 0.175.
The result for CGACTATA reads 0.0549.
As to ACACACGA, the “PBM E-score” value came out at 0.0725.
Under AGCCCTAA stands -0.156; under CTATCCAC, 0.0342.
Consider ACTGGATC, for which the “PBM E-score” value worked out at 0.0174.
For CAGATCAG, the “PBM E-score” value is 0.194.
CGCCACTC: the “PBM E-score” value came out at 0.0149.
Turning to ATACTGCA, the “PBM E-score” value was 0.0914.
For the sequence AAAGCGCC, the “PBM E-score” value came to 0.0742.
AGATAATA: the “PBM E-score” value amounted to 0.218.
Regarding AAATGAAT, the “PBM E-score” value worked out at 0.0707.
For CGTTCCTA, the “PBM E-score” value was -0.0887.
With AAACGTGG, the “PBM E-score” value was -0.209.
AGAGAAAT: the “PBM E-score” value came to 0.0887.
Take GAGGTGCA: the “PBM E-score” value is 0.0493.
Under ACGACTAC stands -0.143; under GCTGTGAC, -0.108; under ATCCTCCA, -0.0483.
As to TCTGTTCA, the “PBM E-score” value was 0.0444.
CTATAGGA: the “PBM E-score” value is -0.0776.
Regarding ACACCCCA, the “PBM E-score” value is -0.0209.
For the sequence CAACAGTG, the “PBM E-score” value is 0.0298.
With CTACTACA, the “PBM E-score” value came to 0.156.
On to GAATTATA, for which the “PBM E-score” value is 0.0673.
Take CGATTGAG: the “PBM E-score” value was found to be 0.0149.
For ACTATGAG, the “PBM E-score” value was -0.0885.
Regarding GGAAGAAC, the “PBM E-score” value was determined as 0.0612.
Turning to AATGTCGA, the “PBM E-score” value came to 0.2.
As for AGGAGTCA, the “PBM E-score” value is -0.0173.
Under CGACGACA stands -0.0583.
For the sequence CGTTCGAG, the “PBM E-score” value stood at 0.062.
Take ACCACGGC: the “PBM E-score” value was -0.205.
The result for CAATTGTC reads 0.129; that for ACACTACG, 0.0467.
With ATCTCGGA, the “PBM E-score” value came to 0.0651.
On to GCATTGTA, for which the “PBM E-score” value is -0.0343.
GACTTATA: the “PBM E-score” value was 0.0597.
For the sequence AGTGTCGA, the “PBM E-score” value was -0.0688.
Consider TTCATAAA, for which the “PBM E-score” value amounted to 0.0298.
In the case of GGCGACGA, the “PBM E-score” value is -0.0822.
The result for CGGGCTTC reads -0.163; that for ACAGGAAC, 0.0795; that for AAATGCGA, 0.0934.
In the case of ACGTGGCA, the “PBM E-score” value was -0.182.
ACCCACGG: the “PBM E-score” value is -0.162.
Under AGGTTGTA stands 0.113; under CCGCCTCG, 0.0861; under CACAGAAG, -0.00398.
Consider ACGATATA, for which the “PBM E-score” value is -0.0452.
Turning to CCTCCAAC, the “PBM E-score” value was determined as 0.12.
For the sequence TCATCCGA, the “PBM E-score” value was found to be 0.135.
For the sequence CCGACGCG, the “PBM E-score” value was -0.0534.
Regarding TAGCAGCA, the “PBM E-score” value was -0.0727.
As to ATATAAGC, the “PBM E-score” value came out at 0.132.
Turning to TAATGGGA, the “PBM E-score” value came out at 0.00808.
As for ACATGCTC, the “PBM E-score” value amounted to 0.00619.
On to CCGTGCCA, for which the “PBM E-score” value is -0.0925.
The result for GGCAAAAC reads 0.00304; that for CACGAAAC, 0.0169.
Under GCAATACC stands 0.176; under GCGACCTA, 0.104; under AGGACAAC, 0.0578.
The result for GCTGGTGA reads 0.0829.
As to CCTAAGCG, the “PBM E-score” value was -0.0608.
As to GAAATTTA, the “PBM E-score” value was found to be 0.0953.
Regarding ATAAAAGG, the “PBM E-score” value is -0.128.
In the case of GGAAAGAC, the “PBM E-score” value was -0.148.
Regarding TCTATTAA, the “PBM E-score” value was 0.0135.
As to AGTCCAAG, the “PBM E-score” value was -0.0885.
For CGCAATAA, the “PBM E-score” value is 0.211.
Regarding CATAACGA, the “PBM E-score” value amounted to 0.157.
On to TAGTGCAA, for which the “PBM E-score” value worked out at 0.16.
With CTTGCGGA, the “PBM E-score” value is -0.0647.
For the sequence ATGTGTGC, the “PBM E-score” value is -0.0286.
The result for ACGTAACA reads -0.0832; that for ATCTAAGA, -0.0394.
With ACGGCCGT, the “PBM E-score” value was determined as 0.199.
Under AAGGGAAC stands 0.0244; under GGACCGAA, 0.132; under ATGACAGA, 0.0824.
Under ATTACAGG stands 0.312.
Under ACATATAA stands 0.211; under AACTACGT, -0.0603.
Consider GTTAGCCA, for which the “PBM E-score” value was -0.00235.
The result for GCCGGCAC reads 0.118.

These data come from the supplement of paper PMC3334620.
